According to PubChem BioAssay AID1439 (NMMLSC, 2008):
The campaign covered roughly 220,000 compounds. About 770 (0.35%) were called active. This list was built around the results that the source calls inconclusive (neither active nor inactive); the mix of calls is not that of the screen. Cut-off read from the data, not from the text of the source: active = binding response below about 49% or above about 150%; inconclusive = no clear call, values can overlap the other calls; inactive = in between.

Amino acid sequences for entries named in this document (tags omitted).
UniProt P09471, whole entry, looked up: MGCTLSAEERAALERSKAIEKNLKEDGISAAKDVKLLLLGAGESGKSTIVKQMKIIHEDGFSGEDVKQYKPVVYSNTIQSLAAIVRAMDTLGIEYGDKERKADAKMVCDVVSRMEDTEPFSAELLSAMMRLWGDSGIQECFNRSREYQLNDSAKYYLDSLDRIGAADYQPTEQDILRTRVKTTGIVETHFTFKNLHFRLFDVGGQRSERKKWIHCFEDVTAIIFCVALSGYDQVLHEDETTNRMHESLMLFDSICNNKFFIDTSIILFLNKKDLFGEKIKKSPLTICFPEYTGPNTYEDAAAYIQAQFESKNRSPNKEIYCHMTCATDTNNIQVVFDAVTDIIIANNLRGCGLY

Target: Guanine nucleotide-binding protein G(o) subunit alpha (Homo sapiens) (UniProt P09471)
Experiment: RGS7-Galphao binding modulators, primary screen, biochemical, multiplexed bead flow cytometry (AID 1439);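 note: fluorescent Galphao held in activated GDP-AlF4 state binding bead-coupled RGS7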
Settings: at 10 µM, actives lie on both sides

**Q.** With `COC(=O)CCC(=O)OC1(C)C(=O)C=C2C=C(C3CC3)N(CCN3CCOCC3)C=C2C1=O` (stereo not given) as the compound, how does the binding response (% of control) read?
**A.** The binding response (% of control) was inconclusive: 120%.

**Q.** With `CCCCC1=CC2=CC(=O)C(C)(OC(=O)CC)C(=O)C2=CN1C1CCCCC1` (stereo not given) as the compound, how does the binding response (% of control) read?
**A.** Its binding response (% of control) is inconclusive: 81.8%.

**Q.** How did the binding response (% of control) turn out when `Cc1ccc(S(=O)(=O)NC(=O)NCc2ccccn2)cc1` was run?
**A.** The binding response (% of control) was inactive: 98.8%.

**Q.** With `O=C1Nc2ccc([N+](=O)[O-])cc2C1=Nc1cccc(CO)c1` as the compound, how does the binding response (% of control) read?
**A.** Its binding response (% of control) is inconclusive: 85.7%.

**Q.** For `CCc1cccc(CC)c1NC(=O)COC(=O)C1(C)CC1(Cl)Cl` (stereo not given), which binding response (% of control) is on record?
**A.** Its binding response (% of control) is inconclusive: 112%.

**Q.** With `Cc1ccsc1/C=N/NC(=O)CNC(=O)c1cccc([N+](=O)[O-])c1C` as the compound, how does the binding response (% of control) read?
**A.** The binding response (% of control) was inactive: 104%.

**Q.** Which binding response (% of control) does the source give for `CCCCCCCCCCCCOC(=O)C[N+](C)(C)C` here?
**A.** Its binding response (% of control) is inconclusive: 142%.

**Q.** For `Cc1cc(C)c2cc(C(=O)Nc3ccccc3)[nH]c2c1`, which binding response (% of control) is on record?
**A.** Its binding response (% of control) is inconclusive: 137%.

**Q.** With `CC1CN(S(=O)(=O)N2CCOCC2)CCN1S(=O)(=O)N1CCOCC1` (stereo not given) as the compound, how does the binding response (% of control) read?
**A.** Its binding response (% of control) is inconclusive: 110%.

**Q.** `CCCn1c(=N)c(S(=O)(=O)c2ccccc2)cc2c(=O)n3ccccc3nc21` was tested. Which binding response (% of control) did it give?
**A.** Its binding response (% of control) is inconclusive: 256%.

**Q.** For `C=CCSc1nnc(CC(OC)OC)n1-c1ccccc1`, which binding response (% of control) is on record?
**A.** Its binding response (% of control) is inactive: 107%.

**Q.** With `COc1ccccc1NC(=O)c1c(N=Cc2cccc([N+](=O)[O-])c2)cnn1C` as the compound, how does the binding response (% of control) read?
**A.** Its binding response (% of control) is inconclusive: 96.1%.

**Q.** For `O=C(Nc1cccc(S(=O)(=O)N2CCOCC2)c1)c1ccc2ccccc2n1`, which binding response (% of control) is on record?
**A.** Its binding response (% of control) is inconclusive: 76.2%.

**Q.** `CCCC(=O)N=c1sc2c(OC)ccc(OC)c2n1C` was tested. Which binding response (% of control) did it give?
**A.** Its binding response (% of control) is inconclusive: 79.8%.

**Q.** For `O=C(CCC(=O)N/N=C/c1ccco1)N/N=C/c1ccco1`, which binding response (% of control) is on record?
**A.** The binding response (% of control) was inconclusive: 105%.

**Q.** With `CC1(C)CC(OC(=O)c2ccccc2)CC(C)(C)N1` as the compound, how does the binding response (% of control) read?
**A.** The binding response (% of control) was inactive: 102%.

**Q.** `COc1ccc(NC(=O)NCCCN2CCN(c3cc(C)ccc3C)CC2)cc1` was tested. Which binding response (% of control) did it give?
**A.** The binding response (% of control) was inactive: 99.6%.

**Q.** `COc1ccccc1N1C(=S)N=C(Nc2c(C)cccc2C)C12CCCC2` was tested. Which binding response (% of control) did it give?
**A.** The binding response (% of control) was inconclusive: 608%.

**Q.** Which binding response (% of control) does the source give for `CC(=O)Nc1cccc(C2=CC(c3ccco3)n3ncnc3N2)c1` (stereo not given) here?
**A.** The binding response (% of control) was inconclusive: 109%.

**Q.** With `CC(COc1ccccc1)N1CCC(CO)(Cc2ccccc2)CC1` (stereo not given) as the compound, how does the binding response (% of control) read?
**A.** The binding response (% of control) was inactive: 103%.

**Q.** For `Cc1sc2ncnc(N3CCCC(C)C3)c2c1C` (stereo not given), which binding response (% of control) is on record?
**A.** Its binding response (% of control) is inconclusive: 119%.

**Q.** With `Cc1cc(=O)[nH]c(N/N=C/c2ccc3c(c2)OCCO3)n1` as the compound, how does the binding response (% of control) read?
**A.** Its binding response (% of control) is inconclusive: 85.1%.

**Q.** Which binding response (% of control) does the source give for `CCOC(=O)c1[nH]ncc1CN1CCC(Cc2ccccc2)(C(=O)OCC)CC1` here?
**A.** Its binding response (% of control) is inconclusive: 103%.

**Q.** With `C/C=C(\C)C(=O)Nc1cccc(C2=NOC3(C2)C[C@@H](C(N)=O)N(C(=O)/C(C)=C/C)C3)c1` (stereo not given in full) as the compound, how does the binding response (% of control) read?
**A.** Its binding response (% of control) is inconclusive: 119%.

**Q.** With `Cn1ncc2c(Nc3ccccc3Cl)nc(Nc3ccccc3Cl)nc21` as the compound, how does the binding response (% of control) read?
**A.** Its binding response (% of control) is inconclusive: 99%.
